Experimental data published in article PMC7797039.
A negative result means that nothing was seen under these conditions. The exact form of at least one protein or probe is not confirmed. At least one verdict was read from the data and is not stated in words by the source.

Sequences of proteins named here, by UniProt entry; tags and fusion partners are left off.
UniProt P09874, whole entry: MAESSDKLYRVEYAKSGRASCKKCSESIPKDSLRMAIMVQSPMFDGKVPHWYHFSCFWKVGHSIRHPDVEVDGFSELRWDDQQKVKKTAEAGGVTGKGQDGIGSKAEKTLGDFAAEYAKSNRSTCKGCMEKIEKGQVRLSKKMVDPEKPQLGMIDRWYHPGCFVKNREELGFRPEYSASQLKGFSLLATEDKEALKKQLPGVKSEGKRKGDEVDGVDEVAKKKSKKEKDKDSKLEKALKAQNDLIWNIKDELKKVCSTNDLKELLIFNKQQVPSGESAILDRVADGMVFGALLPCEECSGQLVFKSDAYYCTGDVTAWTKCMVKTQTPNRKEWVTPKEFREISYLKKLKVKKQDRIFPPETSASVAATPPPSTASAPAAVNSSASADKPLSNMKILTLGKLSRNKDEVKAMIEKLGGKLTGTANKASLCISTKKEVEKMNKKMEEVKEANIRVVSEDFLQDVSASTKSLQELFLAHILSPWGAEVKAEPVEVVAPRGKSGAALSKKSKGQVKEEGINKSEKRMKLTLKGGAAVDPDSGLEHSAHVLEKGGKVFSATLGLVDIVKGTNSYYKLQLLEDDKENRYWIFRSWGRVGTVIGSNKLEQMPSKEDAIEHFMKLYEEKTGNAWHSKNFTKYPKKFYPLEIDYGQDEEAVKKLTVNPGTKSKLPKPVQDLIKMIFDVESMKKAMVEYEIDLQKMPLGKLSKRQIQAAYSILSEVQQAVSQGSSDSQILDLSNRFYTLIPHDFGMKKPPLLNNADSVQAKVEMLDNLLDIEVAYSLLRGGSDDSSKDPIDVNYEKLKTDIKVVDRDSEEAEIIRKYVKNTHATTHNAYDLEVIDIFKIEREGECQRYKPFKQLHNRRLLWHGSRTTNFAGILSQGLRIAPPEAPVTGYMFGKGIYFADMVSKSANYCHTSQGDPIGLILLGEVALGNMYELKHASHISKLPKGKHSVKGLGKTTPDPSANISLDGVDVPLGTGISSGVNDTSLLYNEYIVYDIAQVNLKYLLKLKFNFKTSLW

Biological target: PARP-1 (Homo sapiens) (UniProt P09874)
Experiment: fluorescence anisotropy
Conditions: 140 mM KCl, 25 mM HEPES pH 8.0, 140 mM KCl, 8 mM MgCl2, 50 ug/ml BSA, 0.02 mM TCEP, 4% glycerol, 11.4 mM bME, 5 nM labeled DNA, 30 min room temperature, read at 25 C, recombinant protein, residues 1-1014, protein details: His-tag (pET28a)
[1] = 8 mM MgCl2, Kd in figure only, folded or branched DNA

Sequence: GGGCGGGTTTTTGGGAGGGGAGG [c-KIT L2 5-thy]
- binding result [1]: binds

Sequence: TTTTTTTTTTTTTTTTTTTT [T20]
- binding result (8 mM MgCl2, little or no binding, single-stranded DNA): no binding

Sequence: GGGCGGGAGGGCGCGAGGGGAGG [c-KIT L2-L3]
- binding result [1]: binds

Sequence: AGGGTTAGGGTTAGGGTTAGGG [hTEL G4DNA]
- binding result (8 mM MgCl2, little or no binding, folded or branched DNA): no binding

Sequence: GGGCGGGAAAAAGGGAGGGGAGG [c-KIT L2 5-ade]
- binding result [1]: binds

Sequence: GGGCGCGAGGGCGGGAGGGGAGG [c-KIT L2-L1]
- binding result [1]: binds
